Assay results: article doi:10.1101/2025.06.21.660898
No constants are given. Whether binding was seen depends on the method and setting. Binding seen in cells or lysates may run through a third protein. A yes stands for co-enrichment or nearness to the bait. Other partners may have been found. Tags and fused reporters may be left off the sequences shown.

Molecular target: T1, ZCCHC4-FH (HA and Flag tagged full-length ZCCHC4), stably expressed in HeLa cells (human) (UniProt Q9H5U6)
T1 sequence: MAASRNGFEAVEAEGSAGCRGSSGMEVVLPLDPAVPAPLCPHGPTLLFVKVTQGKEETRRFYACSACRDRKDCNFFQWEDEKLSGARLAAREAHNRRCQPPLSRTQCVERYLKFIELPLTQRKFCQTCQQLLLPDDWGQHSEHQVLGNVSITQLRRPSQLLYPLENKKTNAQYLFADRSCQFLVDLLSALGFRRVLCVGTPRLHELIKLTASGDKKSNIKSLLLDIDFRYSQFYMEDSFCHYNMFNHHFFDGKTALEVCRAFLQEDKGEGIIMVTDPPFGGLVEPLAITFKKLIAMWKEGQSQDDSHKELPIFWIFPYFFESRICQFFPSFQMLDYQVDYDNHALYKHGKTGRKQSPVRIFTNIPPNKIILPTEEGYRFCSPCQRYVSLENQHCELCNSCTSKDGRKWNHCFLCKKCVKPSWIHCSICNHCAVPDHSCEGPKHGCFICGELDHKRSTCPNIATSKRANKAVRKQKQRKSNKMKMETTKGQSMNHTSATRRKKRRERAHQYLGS
Assay: affinity purification with mass spectrometry

- binding: binds
B1: PDCD4 (protein, UniProt Q53EL6 1-469)
chain: MDVENEQILNVNPADPDNLSDSLFSGDEENAGTEEIKNEINGNWISASSINEARINAKAKRRLRKNSSRDSGRGDSVSDSGSDALRSGLTVPTSPKGRLLDRRSRSGKGRGLPKKGGAGGKGVWGTPGQVYDVEEVDVKDPNYDDDQENCVYETVVLPLDERAFEKTLTPIIQEYFEHGDTNEVAEMLRDLNLGEMKSGVPVLAVSLALEGKASHREMTSKLLSDLCGTVMSTTDVEKSFDKLLKDLPELALDTPRAPQLVGQFIARAVGDGILCNTYIDSYKGTVDCVQARAALDKATVLLSMSKGGKRKDSVWGSGGGQQSVNHLVKEIDMLLKEYLLSGDISEAEHCLKELEVPHFHHELVYEAIIMVLESTGESTFKMILDLLKSLWKSSTITVDQMKRGYERIYNEIPDINLDVPHSYSVLERFVEECFQAGIISKQLRDLCPSRGRKRFVSEGDGGRLKPESY
